Source: article PMC5845145
No constants are given. Whether binding was seen depends on the method and setting. In cells and extracts the contact can be indirect. Some binding calls cover weakened binding; strength is not graded here.

By UniProt entry, the sequences of proteins in these tests, tags left out. Residues count along the entry.
UniProt P08962: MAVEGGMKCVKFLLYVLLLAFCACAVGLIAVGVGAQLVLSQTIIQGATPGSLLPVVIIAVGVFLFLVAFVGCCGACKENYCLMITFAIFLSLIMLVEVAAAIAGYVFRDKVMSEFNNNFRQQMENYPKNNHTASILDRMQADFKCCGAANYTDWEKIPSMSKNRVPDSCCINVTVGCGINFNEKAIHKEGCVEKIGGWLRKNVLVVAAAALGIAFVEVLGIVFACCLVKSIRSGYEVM
UniProt P01033, residues 24-207: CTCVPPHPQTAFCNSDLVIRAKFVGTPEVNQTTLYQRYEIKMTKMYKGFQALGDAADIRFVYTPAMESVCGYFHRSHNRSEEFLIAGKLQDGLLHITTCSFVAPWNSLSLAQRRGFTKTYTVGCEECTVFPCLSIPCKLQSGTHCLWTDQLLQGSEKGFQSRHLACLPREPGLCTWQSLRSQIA

Assays:
[1] = target: CD63 (human (endogenous in glioblastoma tissue and U87MG)) (UniProt P08962); assay: co-IP; lysate of U87MG cell line-derived spheroids (50 mM HEPES pH 7.4, 150 mM NaCl, 10% glycerol, 1% Triton X-100, 1 mM EDTA); CD63 antibody MX-49.129.5 or isotype control on Protein G-Dynabeads overnight; immunoblot with anti-TIMP-1
[2] = target: CD63 (human (endogenous in glioblastoma tissue and U87MG)) (UniProt P08962); assay: proximity ligation; Duolink In Situ on organotypic spheroids and U87MG cell line-derived spheroids; data not shown
[3] = target: CD63 (human (endogenous in glioblastoma tissue and U87MG)) (UniProt P08962); assay: proximity ligation; Duolink In Situ on paraffin sections of glioblastoma biopsies; mouse anti-TIMP-1 (VT7) and rabbit anti-CD63 (HPA010088); omission of primary antibodies as negative control

Measured: binding

tissue inhibitor of metalloproteinases-1 (TIMP-1) (from UniProt P01033 24-207)
binds: all assays above
